Data reported in publication PMC9176654.
These are yes or no findings as the source states them, for the method shown. In cells and extracts the contact can be indirect. Some binding calls cover weakened binding; strength is not graded here. For some assays here: Tags and fused reporters may be left off the sequences shown.

Sequences of proteins named here, by UniProt entry; tags and fusion partners are left off.
UniProt P0DTC3: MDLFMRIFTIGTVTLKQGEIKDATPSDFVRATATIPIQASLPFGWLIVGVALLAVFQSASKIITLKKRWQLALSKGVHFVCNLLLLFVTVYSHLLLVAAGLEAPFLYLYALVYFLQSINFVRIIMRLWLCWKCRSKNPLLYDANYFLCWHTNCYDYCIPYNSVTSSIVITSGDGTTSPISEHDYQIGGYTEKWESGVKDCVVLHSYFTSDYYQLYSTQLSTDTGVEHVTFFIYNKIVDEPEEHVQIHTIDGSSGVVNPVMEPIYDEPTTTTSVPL
UniProt P0DTD8: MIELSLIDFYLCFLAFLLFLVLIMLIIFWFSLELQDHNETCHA

B1: ZNF579 (protein, UniProt Q8NAF0 1-562)
chain: MDPQPPPPAQGSPPHRGRGRGRGRGRGRGRGRGRGGAGAPRAPLPCPTCGRLFRFPYYLSRHRLSHSGLRPHACPLCPKAFRRPAHLSRHLRGHGPQPPLRCAACPRTFPEPAQLRRHLAQEHAGGEVELAIERVAKETAEPSWGPQDEGSEPPTTAAAGATEEEAVAAWPETWPAGEPSTLAAPTSAAEPRESESEEAEAGAAELRAELALAAGRQEEKQVLLQADWTLLCLRCREAFATKGELKAHPCLRPEGEQEGEGGPPPRPKRHQCSICLKAFARPWSLSRHRLVHSTDRPFVCPDCGLAFRLASYLRQHRRVHGPLSLLAPLPAAGKKDDKASGARNSAKGPEGGEGAECGGASEGGEGQNGGDAAPARPPAGEPRFWCPECGKGFRRRAHLRQHGVTHSGARPFQCVRCQREFKRLADLARHAQVHAGGPAPHPCPRCPRRFSRAYSLLRHQRCHRAELERAAALQALQAQAPTSPPPPPPPLKAEQEEEGLPLPLANIKEEPPSPGTPPQSPPAPPVFLSASCFDSQDHSAFEMEEEEVDSKAHLRGLGGLAS
B2: STT3A-MYC (protein, UniProt P46977 1-705)
chain: MTKFGFLRLSYEKQDTLLKLLILSMAAVLSFSTRLFAVLRFESVIHEFDPYFNYRTTRFLAEEGFYKFHNWFDDRAWYPLGRIIGGTIYPGLMITSAAIYHVLHFFHITIDIRNVCVFLAPLFSSFTTIVTYHLTKELKDAGAGLLAAAMIAVVPGYISRSVAGSYDNEGIAIFCMLLTYYMWIKAVKTGSICWAAKCALAYFYMVSSWGGYVFLINLIPLHVLVLMLTGRFSHRIYVAYCTVYCLGTILSMQISFVGFQPVLSSEHMAAFGVFGLCQIHAFVDYLRSKLNPQQFEVLFRSVISLVGFVLLTVGALLMLTGKISPWTGRFYSLLDPSYAKNNIPIIASVSEHQPTTWSSYYFDLQLLVFMFPVGLYYCFSNLSDARIFIIMYGVTSMYFSAVMVRLMLVLAPVMCILSGIGVSQVLSTYMKNLDISRPDKKSKKQQDSTYPIKNEVASGMILVMAFFLITYTFHSTWVTSEAYSSPSIVLSARGGDGSRIIFDDFREAYYWLRHNTPEDAKVMSWWDYGYQITAMANRTILVDNNTWNNTHISRVGQAMASTEEKAYEIMRELDVSYVLVIFGGLTGYSSDDINKFLWMVRIGGSTDTGKHIKENDYYTPTGEFRVDREGSPVLLNCLMYKMCYYRFGQVYTEAKRPPGFDRVRNAEIGNKDFELDVLEEAYTTEHWLVRIYKVKDLDNRGLSRT

Assays:
[1] = molecular target: ORF3a-FLAG (SARS-CoV-2) (UniProt P0DTC3); test: co-IP
[2] = molecular target: ORF7b-FLAG (SARS-CoV-2) (UniProt P0DTD8); test: co-IP

Binder	binding [1]	binding [2]
B1	binds	–
B2	–	binds
